Test results taken from article doi:10.64898/2025.12.12.693940.
Read-outs that look alike come from different tables or passages of the source. No constants are given. Whether binding was seen depends on the method and setting. In cells and extracts the contact can be indirect. Here binding means that the protein was enriched with, or labelled near, the bait; the list need not be complete. For some of these results: Where a sequence is shown, tags or fusion partners need not be part of it.

By UniProt entry, the sequences of proteins in these tests, tags left out. Residues count along the entry.
UniProt O95831, residues 102-613: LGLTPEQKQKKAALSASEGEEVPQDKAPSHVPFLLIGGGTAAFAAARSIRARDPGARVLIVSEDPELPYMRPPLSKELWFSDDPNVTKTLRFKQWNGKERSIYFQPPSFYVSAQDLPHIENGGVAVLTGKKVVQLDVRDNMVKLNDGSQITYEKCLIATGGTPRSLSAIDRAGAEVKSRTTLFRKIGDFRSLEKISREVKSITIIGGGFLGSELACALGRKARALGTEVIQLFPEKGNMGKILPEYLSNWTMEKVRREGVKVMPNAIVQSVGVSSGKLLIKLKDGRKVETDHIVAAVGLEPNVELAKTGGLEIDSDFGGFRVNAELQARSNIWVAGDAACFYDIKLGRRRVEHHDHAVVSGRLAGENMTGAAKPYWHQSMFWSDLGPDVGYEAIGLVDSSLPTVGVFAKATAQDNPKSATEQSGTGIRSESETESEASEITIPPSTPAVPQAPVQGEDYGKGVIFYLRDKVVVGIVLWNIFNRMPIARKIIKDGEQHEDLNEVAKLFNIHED

T1: CCDC127-HA (human) (UniProt Q96BQ5)
T1 sequence: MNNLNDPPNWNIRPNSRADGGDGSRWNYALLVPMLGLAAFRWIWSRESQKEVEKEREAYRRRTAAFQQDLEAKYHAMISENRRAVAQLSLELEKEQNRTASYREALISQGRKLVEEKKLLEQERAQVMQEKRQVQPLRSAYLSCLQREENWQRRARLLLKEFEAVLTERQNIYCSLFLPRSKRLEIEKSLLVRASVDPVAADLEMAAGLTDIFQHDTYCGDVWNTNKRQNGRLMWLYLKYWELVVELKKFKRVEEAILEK

T2: MIA40-Strep (human) (UniProt Q8N4Q1)
T2 sequence: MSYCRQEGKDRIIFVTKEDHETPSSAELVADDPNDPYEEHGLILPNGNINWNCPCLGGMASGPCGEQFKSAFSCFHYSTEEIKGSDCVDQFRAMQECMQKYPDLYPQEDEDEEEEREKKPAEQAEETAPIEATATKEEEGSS

B1: SAM50 (protein, UniProt Q9Y512 1-469)
chain: MGTVHARSLEPLPSSGPDFGGLGEEAEFVEVEPEAKQEILENKDVVVQHVHFDGLGRTKDDIIICEIGDVFKAKNLIEVMRKSHEAREKLLRLGIFRQVDVLIDTCQGDDALPNGLDVTFEVTELRRLTGSYNTMVGNNEGSMVLGLKLPNLLGRAEKVTFQFSYGTKETSYGLSFFKPRPGNFERNFSVNLYKVTGQFPWSSLRETDRGMSAEYSFPIWKTSHTVKWEGVWRELGCLSRTASFAVRKESGHSLKSSLSHAMVIDSRNSSILPRRGALLKVNQELAGYTGGDVSFIKEDFELQLNKQLIFDSVFSASFWGGMLVPIGDKPSSIADRFYLGGPTSIRGFSMHSIGPQSEGDYLGGEAYWAGGLHLYTPLPFRPGQGGFGELFRTHFFLNAGNLCNLNYGEGPKAHIRKLAECIRWSYGAGIVLRLGNIARLELNYCVPMGVQTGDRICDGVQFGAGIRFL
B2: CCDC127 (endogenous) (protein, UniProt Q96BQ5 1-260)
chain: MNNLNDPPNWNIRPNSRADGGDGSRWNYALLVPMLGLAAFRWIWSRESQKEVEKEREAYRRRTAAFQQDLEAKYHAMISENRRAVAQLSLELEKEQNRTASYREALISQGRKLVEEKKLLEQERAQVMQEKRQVQPLRSAYLSCLQREENWQRRARLLLKEFEAVLTERQNIYCSLFLPRSKRLEIEKSLLVRASVDPVAADLEMAAGLTDIFQHDTYCGDVWNTNKRQNGRLMWLYLKYWELVVELKKFKRVEEAILEK
B3: MIA40 (endogenous) (protein, UniProt Q8N4Q1 1-142)
chain: MSYCRQEGKDRIIFVTKEDHETPSSAELVADDPNDPYEEHGLILPNGNINWNCPCLGGMASGPCGEQFKSAFSCFHYSTEEIKGSDCVDQFRAMQECMQKYPDLYPQEDEDEEEEREKKPAEQAEETAPIEATATKEEEGSS

Key:
Experiment in all cases: affinity purification with mass spectrometry
CCDC127-HA (human) [1] = target: T1, CCDC127-HA (human)
CCDC127-HA (human) [2] = target: T1, CCDC127-HA (human); remark: listed apart in the source
MIA40-Strep (human) = target: T2, MIA40-Strep (human)

Row | Molecule | binding (CCDC127-HA (human) [2]) | also measured
1 | AIFM1 (from UniProt O95831 102-613) | – | binding (CCDC127-HA (human) [1]): binds
2 | B1 | binds | –
3 | B2 | – | binding (MIA40-Strep (human)): binds
4 | B3 | binds | –
